PubChem BioAssay AID1259308, NCATS | 2017
Test: 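Candidate targets for better recombinant protein yield in mammalian cells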 (primary screen). Cells: human HEK293 embryonic kidney cells stably expressing firefly luciferase (HEK-CMV-Luc2-Hygro). Knock-down reagent: single siRNA against human genes, 0.8 pmol siRNA per well. Time to read-out: 72 h. Measurement: 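Reporter luminescence and viable-cell signal on separate replicate plates, given as percent of non-targeting control and median/MAD z-scores, plus per-cell luciferase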. Reading the numbers: total luciferase, z-score and total luciferase, % of control: higher = more reporter protein produced; luciferase per cell, z-score: higher = more reporter output per viable cell; viable cells, % of control: higher = more viable cells. Rule for the call: 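Active when the median/MAD z-score for overall luciferase is greater than 3; a gene was taken forward for validation with new siRNAs if at least two of its three siRNAs passed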. Calls: active = raised luciferase; inactive = no rise.
The deposit covers about 59,000 reagents; this is an unselected part. Over the whole deposit, about 1,510 (2.6%) were called active. 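Calls use total luciferase alone and ignore viability, so some active siRNAs may act by altering cell number.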 No sequences are given here.

no.	Target gene	PubChem SID	total luciferase, z-score	total luciferase, % of control	luciferase per cell, z-score	viable cells, % of control	outcome
1	LIPG (lipase G, endothelial type)	SID160722094	-1.26	56.8	-0.0666	64.6	inactive
2	LIPG (lipase G, endothelial type)	SID160722095	4.32	168	3.09	83.2	active
3	LIPG (lipase G, endothelial type)	SID160722096	-0.0677	80.5	-0.195	94.7	inactive
4	TCP10L2 (t-complex 10 like 2 (pseudogene))	SID160767237	-0.157	78.8	0.813	71.1	inactive
5	TCP10L2 (t-complex 10 like 2 (pseudogene))	SID160767238	-0.782	66.3	-0.485	84.2	inactive
6	TCP10L2 (t-complex 10 like 2 (pseudogene))	SID160767239	0.278	87.4	0.33	89.5	inactive
7	MCPH1 (microcephalin 1)	SID160749090	-0.679	68.4	-0.828	95	inactive
8	MCPH1 (microcephalin 1)	SID160749091	-0.365	74.6	-0.634	98.5	inactive
9	MCPH1 (microcephalin 1)	SID160749092	-1.27	56.6	-0.649	75.1	inactive
10	ZNF561 (zinc finger protein 561)	SID160754442	-0.122	79.5	0.204	84.1	inactive
11	ZNF561 (zinc finger protein 561)	SID160754443	0.433	90.5	0.76	82.8	inactive
12	ZNF561 (zinc finger protein 561)	SID160754444	0.0687	83.3	0.00855	92.8	inactive
13	BTNL2 (butyrophilin like 2)	SID160744957	-0.871	64.6	-0.0394	72.9	inactive
14	BTNL2 (butyrophilin like 2)	SID160744958	-0.25	76.9	-0.456	96.9	inactive
15	BTNL2 (butyrophilin like 2)	SID160744959	-0.878	64.4	-0.796	88.8	inactive

2 entries from above, sorted by “luciferase per cell, z-score”, descending:
Target gene	PubChem SID	total luciferase, z-score	total luciferase, % of control	luciferase per cell, z-score	viable cells, % of control	outcome
TCP10L2 (t-complex 10 like 2 (pseudogene))	SID160767237	-0.157	78.8	0.813	71.1	inactive
TCP10L2 (t-complex 10 like 2 (pseudogene))	SID160767238	-0.782	66.3	-0.485	84.2	inactive

More results follow:
no.	Target gene	PubChem SID	total luciferase, z-score	total luciferase, % of control	luciferase per cell, z-score	viable cells, % of control	outcome
16	SLC35H1	SID160739834	1.68	115	1.5	86.8	inactive
17	SLC35H1	SID160739835	-0.78	66.4	-0.825	92.2	inactive
18	SLC35H1	SID160739836	-0.774	66.5	-0.31	80.6	inactive
19	CCL7 (C-C motif chemokine ligand 7)	SID160716450	0.347	88.8	0.0691	97.4	inactive
20	CCL7 (C-C motif chemokine ligand 7)	SID160716451	0.474	91.3	-0.556	118	inactive
21	CCL7 (C-C motif chemokine ligand 7)	SID160731696	-0.425	73.4	-1.3	115	inactive
22	OSTCP2 (oligosaccharyltransferase complex subunit pseudogene 2)	SID160733996	-0.195	78	-0.168	91.1	inactive
23	OSTCP2 (oligosaccharyltransferase complex subunit pseudogene 2)	SID160769926	0.0995	83.9	-0.193	98.6	inactive
24	OSTCP2 (oligosaccharyltransferase complex subunit pseudogene 2)	SID160769927	0.626	94.3	0.147	101	inactive
